Data set [1] addresses MafB (wt) homodimer (UniProt P54841). Nature of the data set: EMSA. The note with it: strong preference of site for heterodimer; purified recombinant protein; label: 32P; variant of T-MARE(alpha).
Data set [2] has as its target MafB (E269R) homodimer (UniProt P54841). In words: EMSA. The note with it: detectable only with excessive MafB; purified recombinant protein; label: 32P; variant of T-MARE(alpha). A general note: A gel shift assay detects complexes by their altered migration in electrophoresis.

By UniProt entry, the sequences of proteins in these tests, tags left out. Residues count along the entry.
UniProt P54841, 211-305: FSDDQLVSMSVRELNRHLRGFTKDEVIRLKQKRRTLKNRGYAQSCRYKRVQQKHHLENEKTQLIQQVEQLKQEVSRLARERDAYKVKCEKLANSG
UniProt P54841, 211-305 E269R: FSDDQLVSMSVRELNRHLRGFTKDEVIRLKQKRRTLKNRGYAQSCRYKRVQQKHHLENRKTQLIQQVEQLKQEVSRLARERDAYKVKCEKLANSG

The comparison behind a weaker result is the experiment's own reference, which may not be listed here. For some assays here: The exact form of at least one protein or probe is not confirmed.

Turning to “TCGTCCCCTCCTATGAGTCAGCAATTCTC (double strand) [T-MARE(beta)]”, the binding result in data set [1] was “binds more weakly”.

Turning to “TCGTCCCTTATGCCTACTAGGCAATTCTC (double strand) [T-MARE(gamma)]”, the binding result in data set [2] is given as “binds more weakly”.

The record behind these values is patent publication US20160304584.
